According to patent US20110319600A1:
Results are given in words; binding and its absence hold for the method and conditions named. For some of these results: Binding calls can cover weak binding; strength is not graded here.

B1: B-1 monoclonal antibody (antibody, V domains shown)
VH: EENLLQSGGGLVQPGGSLRLSCAGSGFTFSTYAMTWVRQAPGQGLEWVSSISGSGEISYYADSVKGLFTISRDNSKDTVFLQMTSLRAEDTAVYYCAKSDVWEGYRPSKDALHMWGQGTMVTVSS
VL: DVQMTQSPSSLSASVGDRVTITCRASQSVSNYVNWYQQKPGRAPRLLISSASNLWAGVPPRFSGRGEETDFTLTITSLQPEDSAVYYCQQSYSDLLSFGGGTKVEIK
B2: D-1 monoclonal antibody (antibody, V domains shown)
VH: QVQLVQSGSELKKPGASVKVSCKASGYTFTSYSIYWVRQAPGQGLEWMGWINTNTGNPSYAQGFTGRFVFSFDTSVSTAYLEISSLKAEDTAVYYCAREGDYDILTGYYYYFDYWGQGTLVTVSS
VL: QTVVTQEPSFSVSPGGTVTLTCGLSSGSVSPSYYASWYQQTPGQAPRTLIYNTNTRSSGVPDRFSGSFLGSDAALTITGAQADDESDYFCVLYMPSGDWVFGGGTKLTVL

Experiments:
[1] = target: hemagglutinin (HA) of human influenza A virus subtype H3N2, A/Wyoming/3/03 strain (human influenza A virus subtype H3N2, A/Wyoming/3/03 strain); assay: PAP immunostaining of ethanol-fixed infected MDCK cells
[2] = target: hemagglutinin (HA) of human influenza A virus subtype H3N2, A/New York/55/04 strain (human influenza A virus subtype H3N2, A/New York/55/04 strain); assay: as above
[3] = target: hemagglutinin (HA) of human influenza A virus subtype H3N2, A/Guizhou/54/89 strain (human influenza A virus subtype H3N2, A/Guizhou/54/89 strain); assay: as above
[4] = target: hemagglutinin (HA) of human influenza B virus, B/Malaysia/2506/04 strain (human influenza B virus, B/Malaysia/2506/04 strain); assay: ELISA; purified HA antigen of the strain on plate; hybridoma culture supernatant

Row | Binder | binding [1] | binding [2] | binding [3] | binding [4]
1 | B1 | binds | binds | binds | 
2 | B2 |  |  |  | no binding
